Experimental data: patent US20130310407A1, “COMBINATIONS COMPRISING MACITENTAN FOR THE TREATMENT OF GLIOBLASTOMA MULTIFORME” (ACTELION PHARMACEUTICALS LTD., priority 2011, published 2013)
For at least one compound, name, drawing or mass did not settle the structure.

Tested on: luciferase labeled LN229 glioblastoma cells
Test: Luciferase labeled LN229 glioblastoma cells in nude mice brain: endothelin receptor antagonists in combination with temozolomide (Example 3)
Details: termination at 120 days; temozolomide 7.5 mg/kg oral one week on/two weeks off; macitentan 10 mg/kg oral, atrasentan 10 mg/kg i.p., zibotentan 20 mg/kg oral daily

Cn1nnc2c(C(N)=O)ncn2c1=O [TMZ, temozolomide]
survival status at termination of the study: all animals were moribund
